± gives the standard deviation of the averaged measurements. The reference is the same well before dosing, and untreated signal decays as well.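 Fibroblast labels denote human fibroblasts, mainly primary ones from uterus (C12385, HUF), lung (H6013), bone (Hs27A), adrenal (HADF) and skin (WS1), plus mammary HMF and breast cancer-associated Hs343T. Cancer cells are basal-like or mesenchymal-like triple-negative breast cancer lines. A hit is a response shift exceeding 3x replicate standard deviation. The tissue of the other fibroblasts is not given here.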
System: MDAMB468
Assay: relative JC-1 red fluorescence (viability) vs pre-drug, coculture with fibroblast (fraction); higher = more viable cancer cells
Description: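 JC-1 labelled TNBC cells cocultured 1:1 (1,500 cells each) with CellTrace Violet stained primary or stromal fibroblasts in 384-well plates in FluoroBrite medium, treated with one of 42 anticancer drugs at 0.1, 1, 10 or 100 uM. JC-1 red fluorescence (mitochondrial integrity in cancer cells only) was read by plate reader every 8 h for 72 h. Values are normalised to each well's pre-drug value. The stock of one drug was tenfold lower, so its dose labels may be too high.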

O=C(O)C1(C(=O)O)CCC1.[NH2-].[NH2-].[Pt+2] [Carboplatin]
relative JC-1 red fluorescence
Details | 8 h | 16 h | 24 h | 32 h | 40 h | 48 h | 56 h | 64 h | 72 h
0.1 µM, coculture fibroblast: C12385 | 0.889 ± 0.013 | 0.8383 ± 0.0055 | 0.7924 ± 0.0038 | 0.7456 ± 0.0072 | 0.7177 ± 0.0064 | 0.7082 ± 0.0058 | 0.665 ± 0.019 | 0.643 ± 0.018 | 0.638 ± 0.021
0.1 µM, coculture fibroblast: H6013 | 0.877 ± 0.013 | 0.808 ± 0.014 | 0.8002 ± 0.0042 | 0.7973 ± 0.0048 | 0.77 ± 0.011 | 0.775 ± 0.011 | 0.7445 ± 0.0012 | 0.7264 ± 0.0045 | 0.6802 ± 0.0062
0.1 µM, coculture fibroblast: H6019 | 0.845 ± 0.021 | 0.778 ± 0.05 | 0.762 ± 0.052 | 0.705 ± 0.057 | 0.656 ± 0.057 | 0.634 ± 0.065 | 0.577 ± 0.06 | 0.543 ± 0.063 | 0.517 ± 0.062
0.1 µM, coculture fibroblast: H6076 | 0.9541 ± 0.0049 | 0.9474 ± 0.0046 | 0.883 ± 0.013 | 0.893 ± 0.03 | 0.827 ± 0.023 | 0.825 ± 0.026 | 0.787 ± 0.022 | 0.774 ± 0.019 | 0.836 ± 0.022
0.1 µM, coculture fibroblast: H6231 | 0.816 ± 0.019 | 0.966 ± 0.042 | 0.877 ± 0.026 | 0.828 ± 0.035 | 0.781 ± 0.045 | 0.756 ± 0.031 | 0.698 ± 0.023 | 0.665 ± 0.023 | 0.63 ± 0.022
0.1 µM, coculture fibroblast: HADF | 0.875 ± 0.022 | 0.819 ± 0.026 | 0.774 ± 0.028 | 0.748 ± 0.019 | 0.697 ± 0.014 | 0.684 ± 0.013 | 0.645 ± 0.015 | 0.625 ± 0.013 | 0.5923 ± 0.0055
0.1 µM, coculture fibroblast: HCFa | 0.851 ± 0.022 | 0.771 ± 0.035 | 0.732 ± 0.023 | 0.715 ± 0.019 | 0.645 ± 0.0088 | 0.63645 ± 0.00028 | 0.584 ± 0.0072 | 0.547 ± 0.014 | 0.501 ± 0.0073
0.1 µM, coculture fibroblast: HCPF | 0.908 ± 0.017 | 0.958 ± 0.053 | 0.907 ± 0.057 | 0.8926 ± 0.0026 | 0.81 ± 0.0038 | 0.7926 ± 0.0016 | 0.75 ± 0.014 | 0.738 ± 0.033 | 0.73 ± 0.048
0.1 µM, coculture fibroblast: HHSteC | 0.89961 ± 0.00019 | 0.8395 ± 0.0073 | 0.816 ± 0.011 | 0.7824 ± 0.0042 | 0.7553 ± 0.0041 | 0.755 ± 0.013 | 0.699 ± 0.015 | 0.671 ± 0.016 | 0.615 ± 0.016
0.1 µM, coculture fibroblast: HMF | 0.881 ± 0.02 | 0.925 ± 0.028 | 0.85287 ± 0.00062 | 0.856 ± 0.038 | 0.776 ± 0.037 | 0.771 ± 0.047 | 0.724 ± 0.05 | 0.706 ± 0.047 | 0.708 ± 0.056
0.1 µM, coculture fibroblast: HPFa | 0.908 ± 0.01 | 0.879 ± 0.032 | 0.825 ± 0.021 | 0.764 ± 0.024 | 0.724 ± 0.035 | 0.709 ± 0.042 | 0.64 ± 0.046 | 0.603 ± 0.042 | 0.526 ± 0.036
0.1 µM, coculture fibroblast: HUF | 0.9187 ± 0.0048 | 0.836 ± 0.011 | 0.766 ± 0.014 | 0.703 ± 0.021 | 0.646 ± 0.012 | 0.626 ± 0.024 | 0.587 ± 0.024 | 0.56 ± 0.03 | 0.531 ± 0.028
0.1 µM, coculture fibroblast: Hs5 | 0.752 ± 0.067 | 0.94 ± 0.073 | 0.9339 ± 0.0021 | 0.886 ± 0.014 | 0.811 ± 0.022 | 0.777 ± 0.016 | 0.73 ± 0.012 | 0.688 ± 0.011 | 0.691 ± 0.013
0.1 µM, coculture fibroblast: Hs27A | 0.853 ± 0.013 | 0.7718 ± 0.0037 | 0.7411 ± 0.0059 | 0.7425 ± 0.0019 | 0.678 ± 0.0082 | 0.674 ± 0.0068 | 0.632 ± 0.011 | 0.613 ± 0.012 | 0.5732 ± 0.0034
0.1 µM, coculture fibroblast: Hs343T | 0.899 ± 0.015 | 0.927 ± 0.08 | 0.8657 ± 0.0071 | 0.856 ± 0.022 | 0.785 ± 0.022 | 0.777 ± 0.039 | 0.722 ± 0.042 | 0.716 ± 0.046 | 0.695 ± 0.049
0.1 µM, coculture fibroblast: WS1 | 0.867 ± 0.011 | 0.789 ± 0.034 | 0.721 ± 0.024 | 0.651 ± 0.029 | 0.614 ± 0.031 | 0.583 ± 0.026 | 0.557 ± 0.018 | 0.527 ± 0.015 | 0.526 ± 0.014
1 µM, coculture fibroblast: C12385 | 0.8261 ± 0.0062 | 0.806 ± 0.0097 | 0.772 ± 0.021 | 0.714 ± 0.016 | 0.672 ± 0.03 | 0.66 ± 0.022 | 0.615 ± 0.035 | 0.594 ± 0.032 | 0.579 ± 0.027
1 µM, coculture fibroblast: H6013 | 0.8628 ± 0.0061 | 0.851 ± 0.011 | 0.818 ± 0.012 | 0.807 ± 0.01 | 0.811 ± 0.023 | 0.812 ± 0.028 | 0.785 ± 0.028 | 0.764 ± 0.04 | 0.705 ± 0.043
1 µM, coculture fibroblast: H6019 | 0.809 ± 0.028 | 0.78 ± 0.04 | 0.751 ± 0.039 | 0.698 ± 0.037 | 0.657 ± 0.039 | 0.642 ± 0.042 | 0.593 ± 0.045 | 0.558 ± 0.041 | 0.535 ± 0.043
1 µM, coculture fibroblast: H6076 | 0.911 ± 0.012 | 0.907 ± 0.035 | 0.881 ± 0.057 | 0.896 ± 0.065 | 0.832 ± 0.081 | 0.833 ± 0.083 | 0.82 ± 0.09 | 0.813 ± 0.095 | 0.863 ± 0.11
1 µM, coculture fibroblast: H6231 | 0.839 ± 0.0088 | 0.876 ± 0.089 | 0.851 ± 0.12 | 0.866 ± 0.15 | 0.814 ± 0.15 | 0.798 ± 0.17 | 0.753 ± 0.17 | 0.727 ± 0.16 | 0.714 ± 0.15
1 µM, coculture fibroblast: HADF | 0.8694 ± 0.0031 | 0.8171 ± 0.0031 | 0.744 ± 0.013 | 0.7169 ± 0.0036 | 0.6728 ± 0.0026 | 0.6539 ± 0.0029 | 0.6109 ± 0.0049 | 0.595 ± 0.0048 | 0.5475 ± 0.0013
1 µM, coculture fibroblast: HCFa | 0.85122 ± 0.00043 | 0.8255 ± 0.0061 | 0.763 ± 0.011 | 0.73119 ± 0.00052 | 0.6676 ± 0.0036 | 0.659 ± 0.0053 | 0.5958 ± 0.0051 | 0.5593 ± 0.0036 | 0.516 ± 0.0026
1 µM, coculture fibroblast: HCPF | 0.863 ± 0.053 | 0.781 ± 0.099 | 0.876 ± 0.09 | 0.864 ± 0.051 | 0.793 ± 0.051 | 0.768 ± 0.029 | 0.719 ± 0.027 | 0.706 ± 0.018 | 0.6954 ± 0.0058
1 µM, coculture fibroblast: HHSteC | 0.888 ± 0.029 | 0.902 ± 0.061 | 0.872 ± 0.08 | 0.851 ± 0.098 | 0.825 ± 0.12 | 0.828 ± 0.15 | 0.764 ± 0.15 | 0.751 ± 0.16 | 0.697 ± 0.15
1 µM, coculture fibroblast: HMF | 0.8241 ± 0.0063 | 0.88 ± 0.029 | 0.795 ± 0.033 | 0.769 ± 0.018 | 0.696 ± 0.0073 | 0.6759 ± 0.006 | 0.635 ± 0.0088 | 0.616 ± 0.015 | 0.604 ± 0.026
1 µM, coculture fibroblast: HPFa | 0.9309 ± 0.0062 | 0.876 ± 0.011 | 0.838 ± 0.019 | 0.778 ± 0.026 | 0.737 ± 0.026 | 0.732 ± 0.022 | 0.6508 ± 0.0022 | 0.6216 ± 0.0013 | 0.5382 ± 0.0046
1 µM, coculture fibroblast: HUF | 0.89 ± 0.0065 | 0.844 ± 0.012 | 0.8093 ± 0.0011 | 0.7493 ± 0.0014 | 0.71342 ± 0.00062 | 0.69 ± 0.011 | 0.647 ± 0.013 | 0.6251 ± 0.0056 | 0.603 ± 0.011
1 µM, coculture fibroblast: Hs5 | 0.9692 ± 0.0033 | 0.921 ± 0.0014 | 0.8915 ± 0.0029 | 0.867 ± 0.016 | 0.78614 ± 0.00027 | 0.7569 ± 0.0038 | 0.713 ± 0.011 | 0.6731 ± 0.0052 | 0.678 ± 0.019
1 µM, coculture fibroblast: Hs27A | 0.8616 ± 0.006 | 0.8599 ± 0.0014 | 0.7867 ± 0.0033 | 0.7887 ± 0.0024 | 0.739 ± 0.0096 | 0.735 ± 0.015 | 0.69 ± 0.017 | 0.669 ± 0.018 | 0.628 ± 0.018
1 µM, coculture fibroblast: Hs343T | 0.864 ± 0.015 | 0.878 ± 0.012 | 0.844 ± 0.019 | 0.839 ± 0.045 | 0.763 ± 0.051 | 0.746 ± 0.057 | 0.708 ± 0.065 | 0.695 ± 0.073 | 0.691 ± 0.08
1 µM, coculture fibroblast: WS1 | 0.8278 ± 0.0059 | 0.799 ± 0.029 | 0.745 ± 0.029 | 0.683 ± 0.028 | 0.642 ± 0.028 | 0.61 ± 0.026 | 0.581 ± 0.027 | 0.561 ± 0.029 | 0.549 ± 0.024

Source: the supplement of paper PMC6078165
